Results: the supplement of paper PMC10849652
This is one part of the list.

Amino acid sequences for entries named in this document (tags omitted). A change or cut given only in a name is not applied to a line headed by its entry.
UniProt H3BUF6: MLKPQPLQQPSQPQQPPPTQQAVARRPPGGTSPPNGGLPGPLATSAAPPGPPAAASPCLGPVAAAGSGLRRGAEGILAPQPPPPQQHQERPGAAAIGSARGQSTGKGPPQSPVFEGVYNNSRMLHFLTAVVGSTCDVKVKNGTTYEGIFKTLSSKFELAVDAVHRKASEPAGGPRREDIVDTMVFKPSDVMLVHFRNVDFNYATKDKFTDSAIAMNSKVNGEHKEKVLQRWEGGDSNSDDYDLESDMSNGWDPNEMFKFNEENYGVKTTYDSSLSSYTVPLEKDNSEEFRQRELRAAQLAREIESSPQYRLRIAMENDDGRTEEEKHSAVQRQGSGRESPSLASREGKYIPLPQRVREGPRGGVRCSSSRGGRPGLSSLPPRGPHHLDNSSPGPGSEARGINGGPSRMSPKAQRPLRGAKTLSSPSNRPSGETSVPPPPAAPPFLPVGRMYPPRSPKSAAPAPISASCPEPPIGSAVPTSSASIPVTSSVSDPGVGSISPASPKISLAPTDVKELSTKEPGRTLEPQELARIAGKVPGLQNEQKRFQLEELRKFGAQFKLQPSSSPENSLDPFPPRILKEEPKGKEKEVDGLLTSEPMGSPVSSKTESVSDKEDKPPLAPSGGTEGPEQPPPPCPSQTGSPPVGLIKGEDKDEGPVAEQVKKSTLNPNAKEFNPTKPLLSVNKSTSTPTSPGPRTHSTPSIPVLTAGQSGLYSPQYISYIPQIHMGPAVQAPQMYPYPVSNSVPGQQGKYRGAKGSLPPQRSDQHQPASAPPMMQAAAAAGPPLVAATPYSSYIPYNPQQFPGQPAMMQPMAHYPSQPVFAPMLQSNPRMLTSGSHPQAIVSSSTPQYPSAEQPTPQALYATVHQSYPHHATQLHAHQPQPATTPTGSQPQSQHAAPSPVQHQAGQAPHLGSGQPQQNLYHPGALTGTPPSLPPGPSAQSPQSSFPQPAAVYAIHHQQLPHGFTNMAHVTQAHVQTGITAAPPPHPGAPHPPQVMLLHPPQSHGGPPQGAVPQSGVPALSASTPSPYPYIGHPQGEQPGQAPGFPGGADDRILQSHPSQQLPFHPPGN
UniProt Q4VC05, whole entry, looked up: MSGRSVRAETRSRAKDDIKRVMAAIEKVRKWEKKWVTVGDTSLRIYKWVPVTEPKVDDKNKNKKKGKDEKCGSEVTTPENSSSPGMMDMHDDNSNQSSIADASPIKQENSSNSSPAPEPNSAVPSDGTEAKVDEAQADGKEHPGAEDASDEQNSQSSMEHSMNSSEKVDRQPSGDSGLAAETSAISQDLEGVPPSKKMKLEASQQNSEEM
UniProt Q9H6U6: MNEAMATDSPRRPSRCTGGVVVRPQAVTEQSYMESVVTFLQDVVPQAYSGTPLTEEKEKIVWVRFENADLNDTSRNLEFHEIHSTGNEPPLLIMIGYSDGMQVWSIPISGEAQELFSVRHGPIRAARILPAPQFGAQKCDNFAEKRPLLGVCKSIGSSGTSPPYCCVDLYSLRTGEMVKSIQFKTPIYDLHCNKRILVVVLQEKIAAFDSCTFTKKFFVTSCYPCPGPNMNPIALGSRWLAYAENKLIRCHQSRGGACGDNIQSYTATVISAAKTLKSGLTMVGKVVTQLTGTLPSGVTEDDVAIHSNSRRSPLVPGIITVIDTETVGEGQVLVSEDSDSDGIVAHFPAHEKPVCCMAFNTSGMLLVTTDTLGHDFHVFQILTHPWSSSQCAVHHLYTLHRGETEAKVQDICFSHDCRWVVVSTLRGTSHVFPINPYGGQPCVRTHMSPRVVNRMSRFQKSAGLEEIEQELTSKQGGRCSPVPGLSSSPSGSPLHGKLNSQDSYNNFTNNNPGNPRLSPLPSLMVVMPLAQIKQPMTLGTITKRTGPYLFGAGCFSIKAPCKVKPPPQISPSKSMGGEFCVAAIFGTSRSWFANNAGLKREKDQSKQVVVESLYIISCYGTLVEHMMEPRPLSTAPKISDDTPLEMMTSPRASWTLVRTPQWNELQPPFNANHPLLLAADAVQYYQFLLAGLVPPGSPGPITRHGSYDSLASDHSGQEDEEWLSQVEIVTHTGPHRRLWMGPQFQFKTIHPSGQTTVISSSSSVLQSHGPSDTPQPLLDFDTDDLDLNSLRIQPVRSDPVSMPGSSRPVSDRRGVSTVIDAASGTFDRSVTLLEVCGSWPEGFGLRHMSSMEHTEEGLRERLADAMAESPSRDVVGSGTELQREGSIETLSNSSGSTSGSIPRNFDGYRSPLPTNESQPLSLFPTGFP
UniProt Q8NCR0: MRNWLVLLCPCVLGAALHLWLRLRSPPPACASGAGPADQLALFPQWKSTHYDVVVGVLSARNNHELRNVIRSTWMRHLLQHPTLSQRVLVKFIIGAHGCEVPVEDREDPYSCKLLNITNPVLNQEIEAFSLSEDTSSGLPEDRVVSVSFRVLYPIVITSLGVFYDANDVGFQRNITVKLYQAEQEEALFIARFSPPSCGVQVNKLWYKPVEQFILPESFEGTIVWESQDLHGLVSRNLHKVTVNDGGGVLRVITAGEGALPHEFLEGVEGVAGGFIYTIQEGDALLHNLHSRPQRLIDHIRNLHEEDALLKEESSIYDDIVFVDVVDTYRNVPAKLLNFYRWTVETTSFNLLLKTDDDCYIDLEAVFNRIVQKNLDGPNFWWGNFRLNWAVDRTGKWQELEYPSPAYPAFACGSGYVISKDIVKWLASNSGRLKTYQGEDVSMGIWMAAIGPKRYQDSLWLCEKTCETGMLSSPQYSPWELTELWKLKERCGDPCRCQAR
UniProt Q96B45: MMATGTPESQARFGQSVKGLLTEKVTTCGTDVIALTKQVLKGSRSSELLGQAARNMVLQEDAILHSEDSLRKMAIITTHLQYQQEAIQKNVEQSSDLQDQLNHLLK
UniProt Q8TDL5: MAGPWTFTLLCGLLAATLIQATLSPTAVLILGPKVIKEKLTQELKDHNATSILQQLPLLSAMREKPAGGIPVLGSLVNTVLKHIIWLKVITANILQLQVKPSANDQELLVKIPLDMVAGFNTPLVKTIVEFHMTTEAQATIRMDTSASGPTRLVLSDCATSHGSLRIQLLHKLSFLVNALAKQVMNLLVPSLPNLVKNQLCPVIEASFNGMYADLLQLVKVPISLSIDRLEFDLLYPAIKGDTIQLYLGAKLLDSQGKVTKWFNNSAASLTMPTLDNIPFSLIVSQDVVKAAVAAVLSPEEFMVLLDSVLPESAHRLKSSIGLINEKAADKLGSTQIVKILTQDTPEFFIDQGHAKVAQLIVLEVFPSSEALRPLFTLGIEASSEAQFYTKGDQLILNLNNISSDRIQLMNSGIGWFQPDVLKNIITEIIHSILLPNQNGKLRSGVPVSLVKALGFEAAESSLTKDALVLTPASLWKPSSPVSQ
UniProt P56945: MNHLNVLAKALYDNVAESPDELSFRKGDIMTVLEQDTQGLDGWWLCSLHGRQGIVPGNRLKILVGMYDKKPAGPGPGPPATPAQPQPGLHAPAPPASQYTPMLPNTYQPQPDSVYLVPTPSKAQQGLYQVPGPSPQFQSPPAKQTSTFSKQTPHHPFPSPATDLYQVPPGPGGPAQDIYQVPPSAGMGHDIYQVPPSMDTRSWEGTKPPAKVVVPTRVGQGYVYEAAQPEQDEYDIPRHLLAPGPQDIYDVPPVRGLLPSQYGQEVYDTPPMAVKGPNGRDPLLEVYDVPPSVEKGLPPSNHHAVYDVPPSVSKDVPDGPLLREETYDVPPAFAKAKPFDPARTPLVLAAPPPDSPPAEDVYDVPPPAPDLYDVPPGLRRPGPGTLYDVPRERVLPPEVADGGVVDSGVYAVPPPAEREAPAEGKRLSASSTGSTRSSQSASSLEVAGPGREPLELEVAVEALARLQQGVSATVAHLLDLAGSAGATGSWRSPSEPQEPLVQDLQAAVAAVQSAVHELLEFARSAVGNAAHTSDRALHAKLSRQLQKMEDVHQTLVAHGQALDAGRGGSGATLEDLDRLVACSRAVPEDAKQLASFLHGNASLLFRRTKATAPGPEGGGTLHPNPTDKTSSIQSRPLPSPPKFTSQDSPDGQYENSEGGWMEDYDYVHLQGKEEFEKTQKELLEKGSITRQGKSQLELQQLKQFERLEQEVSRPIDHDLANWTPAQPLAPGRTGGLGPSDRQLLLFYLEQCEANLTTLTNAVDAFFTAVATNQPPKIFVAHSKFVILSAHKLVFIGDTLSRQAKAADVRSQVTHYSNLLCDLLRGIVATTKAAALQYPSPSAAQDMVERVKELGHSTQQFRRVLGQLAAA
UniProt Q13825: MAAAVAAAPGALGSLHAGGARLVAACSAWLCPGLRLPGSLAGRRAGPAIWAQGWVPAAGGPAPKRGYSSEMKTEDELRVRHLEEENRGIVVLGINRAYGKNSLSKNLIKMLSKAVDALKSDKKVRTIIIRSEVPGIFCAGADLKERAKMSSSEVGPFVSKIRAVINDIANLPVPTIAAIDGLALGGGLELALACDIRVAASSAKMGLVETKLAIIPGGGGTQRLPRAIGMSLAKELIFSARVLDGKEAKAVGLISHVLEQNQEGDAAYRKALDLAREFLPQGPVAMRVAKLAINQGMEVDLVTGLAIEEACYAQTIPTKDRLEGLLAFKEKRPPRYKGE
UniProt Q96FH0: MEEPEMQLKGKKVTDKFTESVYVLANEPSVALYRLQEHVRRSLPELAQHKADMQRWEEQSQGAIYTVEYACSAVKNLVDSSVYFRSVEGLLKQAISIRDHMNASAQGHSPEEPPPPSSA
UniProt Q6PGQ7, whole entry, looked up: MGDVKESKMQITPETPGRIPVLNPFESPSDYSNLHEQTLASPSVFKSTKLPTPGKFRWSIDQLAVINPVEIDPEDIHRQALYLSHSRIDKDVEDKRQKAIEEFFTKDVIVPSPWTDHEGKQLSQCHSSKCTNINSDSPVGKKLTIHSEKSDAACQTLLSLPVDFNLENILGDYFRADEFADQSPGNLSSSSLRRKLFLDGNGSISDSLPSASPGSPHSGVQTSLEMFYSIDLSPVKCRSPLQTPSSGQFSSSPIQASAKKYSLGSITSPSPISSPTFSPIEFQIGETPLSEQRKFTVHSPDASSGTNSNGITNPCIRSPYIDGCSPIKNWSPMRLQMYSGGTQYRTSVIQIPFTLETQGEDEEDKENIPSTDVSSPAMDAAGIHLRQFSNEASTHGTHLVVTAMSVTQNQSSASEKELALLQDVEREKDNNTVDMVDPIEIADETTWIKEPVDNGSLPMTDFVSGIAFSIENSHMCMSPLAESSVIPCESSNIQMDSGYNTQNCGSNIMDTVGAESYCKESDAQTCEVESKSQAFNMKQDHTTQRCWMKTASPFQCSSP
UniProt O15169, whole entry, looked up: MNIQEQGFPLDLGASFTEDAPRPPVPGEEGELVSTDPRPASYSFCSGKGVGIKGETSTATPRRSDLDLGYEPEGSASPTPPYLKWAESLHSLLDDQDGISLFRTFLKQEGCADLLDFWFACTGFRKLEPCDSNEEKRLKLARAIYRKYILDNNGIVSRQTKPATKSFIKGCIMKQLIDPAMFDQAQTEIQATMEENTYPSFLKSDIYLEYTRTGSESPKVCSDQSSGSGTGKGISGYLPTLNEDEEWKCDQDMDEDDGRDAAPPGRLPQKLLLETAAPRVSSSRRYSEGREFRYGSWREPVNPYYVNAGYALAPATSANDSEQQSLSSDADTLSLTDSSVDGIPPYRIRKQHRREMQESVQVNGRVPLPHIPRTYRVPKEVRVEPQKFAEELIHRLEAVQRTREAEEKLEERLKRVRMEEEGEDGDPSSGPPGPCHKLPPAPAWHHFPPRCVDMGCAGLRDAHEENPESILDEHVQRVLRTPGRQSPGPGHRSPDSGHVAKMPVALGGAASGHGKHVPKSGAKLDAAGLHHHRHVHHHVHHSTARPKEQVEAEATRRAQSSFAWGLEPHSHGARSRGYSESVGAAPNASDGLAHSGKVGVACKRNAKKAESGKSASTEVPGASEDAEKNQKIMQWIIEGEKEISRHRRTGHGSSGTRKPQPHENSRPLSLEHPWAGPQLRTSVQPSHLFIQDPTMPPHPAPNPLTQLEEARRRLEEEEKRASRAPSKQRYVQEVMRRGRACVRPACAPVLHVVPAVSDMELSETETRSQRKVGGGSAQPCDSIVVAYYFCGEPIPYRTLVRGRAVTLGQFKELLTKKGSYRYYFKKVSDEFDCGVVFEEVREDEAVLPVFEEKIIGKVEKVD
UniProt Q9H2G9: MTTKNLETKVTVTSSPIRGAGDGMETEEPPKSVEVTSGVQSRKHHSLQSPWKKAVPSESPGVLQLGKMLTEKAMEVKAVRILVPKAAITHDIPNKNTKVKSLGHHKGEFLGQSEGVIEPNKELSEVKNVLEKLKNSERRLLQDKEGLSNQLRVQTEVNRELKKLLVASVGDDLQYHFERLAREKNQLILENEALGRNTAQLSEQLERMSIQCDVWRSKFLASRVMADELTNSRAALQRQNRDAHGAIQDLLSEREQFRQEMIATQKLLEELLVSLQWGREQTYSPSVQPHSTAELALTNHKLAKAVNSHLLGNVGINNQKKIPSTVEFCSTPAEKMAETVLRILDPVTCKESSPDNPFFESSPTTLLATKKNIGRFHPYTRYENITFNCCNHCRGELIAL

Legend:
Test in all cases: log2 fold change, soluble protein after heating vs DMSO (PISA); higher = thermal stabilisation; K562 cells, 10 uM, 30 min; active = over 0.2 and 3.5 SD of the protein, either way, in both replicates (recomputed)
[1] = compound: CC[C@@H]1C(=O)N(C)c2cnc(Nc3ccc(C(=O)NC4CCN(C)CC4)cc3OC)nc2N1C1CCCC1
Method in brief: (§1)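 K562 cells at 2×10^6 cells/mL were treated with 10 μM compound for 30 min. Aliquots were heated for 3 min across 48°C-58°C, pooled, and extracted in PBS with 0.5% NP-40 at 4°C; soluble protein was the supernatant after 21,000xg for 90 min. Soluble protein was quantified by TMTpro 16plex LC-MS/MS with channel sums equalised, and reported as log2 fold change in thermal stability against DMSO controls, with values from duplicates.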

[2] = compound: CC[C@@H]1C(=O)N(C)c2cnc(Nc3ccc(C(=O)N[C@H]4CC[C@H](N5CCN(CC6CC6)CC5)CC4)cc3OC)nc2N1C(C)C [volasertib]
Method in brief: as §1

[3] = compound: CC[C@H](C)N1C=C(C2=C(C=C(C=C21)C3=CN=C(C=C3)N4CCNCC4)C(=O)NCC5=C(C=C(NC5=O)C)C)C
Method in brief: as §1

[4] = compound: CCn1cc(-c2ccnc3[nH]c(-c4cccc(CN(C)C)c4)cc23)c(-c2ccc(NC(=O)N(C)C)cc2)n1
Method in brief: as §1

[5] = compound: CN(CCOC1=CC=C(C=C1)C[C@H]2C(=O)NC(=O)S2)C3=CC=CC=N3 (racemic) [rosiglitazone]
Method in brief: as §1

[6] = compound: CN1CCC(CNc2ccc3ncc(-c4cccc(OC(F)(F)F)c4)n3n2)CC1
Method in brief: as §1

[7] = compound: CNCc1ccc(-c2[nH]c3cc(F)cc4c3c2CCNC4=O)cc1 [rucaparib]
Method in brief: as §1

[8] = compound: COC(=O)N[C@@H](C)CNc1nccc(-c2cn(C(C)C)nc2-c2cc(Cl)cc(NS(C)(=O)=O)c2F)n1 [encorafenib]
Method in brief: as §1

[9] = compound: CC[C@H](C)[C@@H](C(=O)N[C@@H]([C@@H](C)O)C(=O)N[C@@H](CC(C)C)C(=O)[C@]1(CO1)C)NC(=O)[C@H]([C@@H](C)CC)N(C)C(=O)C [epoxomicin]
Method in brief: as §1

[10] = compound: CCn1c(C(=O)N(C2CC2)C2CC2)cc2c3c(ncn3C)c(Nc3cc(C)n(C)n3)nc21
Method in brief: as §1

[11] = compound: CN1CCN(c2nc(C3=C(c4c[nH]c5ccccc45)C(=O)NC3=O)c3ccccc3n2)CC1 [sotrastaurin]
Method in brief: as §1

[12] = compound: CN1CCc2c(c3ccccc3n2Cc2ccc(C(=O)NO)cc2)C1 [Tubastatin A]
Method in brief: as §1

[13] = compound: CNC(=O)C1=CC=CC=C1NC2=NC(=NC=C2Cl)NC3=C(C=C(C=C3)N4CCOCC4)OC
Method in brief: as §1

[14] = compound: CN1C2=C(C3=C1C(=O)N(N=C3)CC4=CC(=CC=C4)N)SC(=C2)S(=O)C
Method in brief: as §1

[15] = compound: CN1CCN(CCOc2cc(OC3CCOCC3)c3c(Nc4c(Cl)ccc5c4OCO5)ncnc3c2)CC1 [saracatinib]
Method in brief: as §1

[16] = compound: CN1CC[C@H](c2c(O)cc(O)c3c(=O)cc(-c4ccccc4Cl)oc23)[C@H](O)C1 [alvocidib]
Method in brief: as §1

[17] = compound: CNc1nc(-c2ccc3c(N)n[nH]c3c2)cc(N2C[C@@H](C(=O)NC3CCCCC3)CC[C@H]2C)n1
Method in brief: as §1

[18] = compound: CN(C)CC(=O)Nc1ccc2[nH]c(=O)c3ccccc3c2c1
Method in brief: as §1

[19] = compound: CNC(=O)c1ccc(Nc2ncc(C(F)(F)F)c(NCc3nccnc3N(C)S(C)(=O)=O)n2)cc1 [defactinib]
Method in brief: as §1

[20] = compound: COC(=O)[C@H](CCSC)NC(=O)C1=C(C=C(C=C1)NC[C@H](CS)N)C2=CC=CC=C2
Method in brief: as §1

Target	log2 fold change [1]	log2 fold change [2]	log2 fold change [3]	log2 fold change [4]	log2 fold change [5]	log2 fold change [6]	log2 fold change [7]	log2 fold change [8]	log2 fold change [9]	log2 fold change [10]	log2 fold change [11]	log2 fold change [12]	log2 fold change [13]	log2 fold change [14]	log2 fold change [15]	log2 fold change [16]	log2 fold change [17]	log2 fold change [18]	log2 fold change [19]	log2 fold change [20]
ATXN2L (UniProt H3BUF6)	inactive: 0.01	inactive: -0.075	inactive: -0.009	inactive: -0.077	inactive: 0.046	inactive: 0.214	inactive: 0.184	inactive: -0.026	–	–	–	–	–	–	–	–	–	–	–	–
BCL7A isoform 2 (UniProt Q4VC05)	inactive: 0.238	inactive: 0.076	–	–	–	–	inactive: 0.077	inactive: -0.065	inactive: -0.114	inactive: 0.022	inactive: 0.115	inactive: -0.004	inactive: -0.119	–	–	–	–	–	–	–
BCAS3 isoform 8 (UniProt Q9H6U6)	inactive: -0.055	inactive: -0.333	–	inactive: -0.06	–	inactive: -0.012	inactive: 0.038	inactive: -0.148	–	inactive: 0.001	–	inactive: -0.136	inactive: -0.001	inactive: -0.159	inactive: 0.052	inactive: 0.016	inactive: 0.073	–	–	–
B3GALNT2 (UniProt Q8NCR0)	inactive: 0.18	inactive: -0.118	–	inactive: 0.056	inactive: 0.02	inactive: 0.094	inactive: -0.059	inactive: 0.029	inactive: -0.083	inactive: 0.106	inactive: 0.08	inactive: -0.052	inactive: -0.125	–	–	–	–	inactive: -0.025	inactive: 0.053	inactive: 0.06
BORCS7 (UniProt Q96B45)	inactive: -0.018	inactive: -0.011	inactive: -0.12	inactive: 0.048	inactive: -0.029	inactive: -0.017	inactive: -0.006	inactive: -0.045	–	inactive: 0.004	–	inactive: -0.114	inactive: -0.001	inactive: -0.154	inactive: 0.164	inactive: -0.007	inactive: -0.064	inactive: -0.043	inactive: 0.015	inactive: -0.095
BPIFB1 (UniProt Q8TDL5)	inactive: -0.157	–	inactive: 0.592	–	–	–	inactive: -0.015	inactive: 0.137	–	–	inactive: -0.071	–	–	–	–	–	–	–	–	–
AURKAIP1 (UniProt Q9NWT8)	inactive: 0.182	–	–	–	–	–	inactive: 0.282	inactive: 0.069	inactive: -0.14	inactive: -0.047	inactive: 0.002	inactive: 0.217	inactive: -0.025	inactive: 0.271	inactive: -0.101	inactive: 0.322	inactive: 0.099	inactive: -0.078	inactive: 0.378	inactive: -0.04
BCAR1 isoform 6 (UniProt P56945)	inactive: -0.094	inactive: -0.076	–	inactive: 0.018	inactive: -0.027	inactive: -0.017	inactive: -0.011	inactive: -0.028	inactive: -0.018	inactive: -0.011	inactive: 0.099	inactive: 0.039	inactive: -0.019	inactive: 0.09	inactive: 0.099	inactive: 0.016	inactive: -0.035	inactive: 0.008	inactive: -0.006	inactive: -0.02
BLM (UniProt P54132)	inactive: 0.064	inactive: -0.199	inactive: 0.027	–	inactive: 0.085	–	inactive: -0.033	inactive: 0.054	–	inactive: -0.007	inactive: -0.038	inactive: -0.019	inactive: 0.071	inactive: 0.064	inactive: 0.068	inactive: -0.042	inactive: -0.01	inactive: 0.066	inactive: -0.035	inactive: -0.009
ATRAID isoform 3 (UniProt Q6UW56)	inactive: -0.003	inactive: 0.131	inactive: -0.044	inactive: -0.17	inactive: 0.062	inactive: 0.039	inactive: -0.029	inactive: -0.042	–	inactive: 0.065	inactive: 0.006	inactive: 0.055	inactive: -0.059	inactive: -0.038	inactive: -0.027	inactive: -0.02	inactive: -0.042	inactive: -0.013	inactive: 0.033	inactive: 0.025
AUH (UniProt Q13825)	inactive: 0.011	active: 0.486	–	inactive: -0.094	–	inactive: 0.086	inactive: 0.065	inactive: -0.005	–	–	–	inactive: 0.152	inactive: 0.003	inactive: -0.183	inactive: 0.184	–	inactive: -0.062	inactive: 0.128	inactive: -0.055	inactive: 0.006
BORCS8 (UniProt Q96FH0)	inactive: -0.108	–	–	–	–	–	inactive: 0.341	inactive: -0.362	–	–	–	inactive: -0.059	–	–	–	–	–	–	–	–
BRCA1 isoform 7 (UniProt P38398)	–	inactive: -0.063	–	–	–	–	–	–	–	inactive: -0.234	inactive: 0.126	–	inactive: -0.254	–	–	–	–	inactive: -0.171	inactive: -0.159	inactive: 0.15
BORA (UniProt Q6PGQ7)	–	–	–	–	inactive: -0.332	–	–	–	inactive: -0.015	–	inactive: -0.218	–	–	–	–	–	–	–	–	–
AXIN1 (UniProt O15169)	–	–	–	inactive: -0.096	–	inactive: -0.233	–	–	–	–	–	–	–	–	–	–	–	inactive: 0.005	inactive: -0.231	inactive: 0
BLZF1 (UniProt Q9H2G9)	–	–	–	–	–	–	–	–	–	–	inactive: -0.146	–	–	–	–	inactive: -0.087	–	–	–	–

Nothing new here: entries from further up.
Target	log2 fold change [1]	log2 fold change [2]	log2 fold change [3]	log2 fold change [4]	log2 fold change [5]	log2 fold change [6]	log2 fold change [7]	log2 fold change [8]	log2 fold change [9]	log2 fold change [10]	log2 fold change [11]	log2 fold change [12]	log2 fold change [13]	log2 fold change [14]	log2 fold change [15]	log2 fold change [16]	log2 fold change [17]	log2 fold change [18]	log2 fold change [19]	log2 fold change [20]
BLM (UniProt P54132)	inactive: 0.064	inactive: -0.199	inactive: 0.027	–	inactive: 0.085	–	inactive: -0.033	inactive: 0.054	–	inactive: -0.007	inactive: -0.038	inactive: -0.019	inactive: 0.071	inactive: 0.064	inactive: 0.068	inactive: -0.042	inactive: -0.01	inactive: 0.066	inactive: -0.035	inactive: -0.009
ATRAID isoform 3 (UniProt Q6UW56)	inactive: -0.003	inactive: 0.131	inactive: -0.044	inactive: -0.17	inactive: 0.062	inactive: 0.039	inactive: -0.029	inactive: -0.042	–	inactive: 0.065	inactive: 0.006	inactive: 0.055	inactive: -0.059	inactive: -0.038	inactive: -0.027	inactive: -0.02	inactive: -0.042	inactive: -0.013	inactive: 0.033	inactive: 0.025
AUH (UniProt Q13825)	inactive: 0.011	active: 0.486	–	inactive: -0.094	–	inactive: 0.086	inactive: 0.065	inactive: -0.005	–	–	–	inactive: 0.152	inactive: 0.003	inactive: -0.183	inactive: 0.184	–	inactive: -0.062	inactive: 0.128	inactive: -0.055	inactive: 0.006
